Laboratory results from PubChem BioAssay AID588398 (Broad Institute, 2011).
Screen size: about 1,200 compounds; about 110 (9.2%) were called active. The inconclusive results got no clear call from the source; some entries with a clear call stand among them for comparison.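 How the source made its calls: active means pathway reporter half-maximal dose under half the control reporter's, or control reporter unaffected while pathway reporter is inhibited; inconclusive means either signal flat at 30 to 70% inhibition or poorly fitted; inactive means the rest.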

test: LMP1 TES1 pathway selectivity over dsRED control – imaging, HEK293T, dual-color eGFP/dsRED, cherry-picks, selectivity assay for LMP1 NF-kB inhibitor project, dose response (AID 588398); details: HEK293T Tet-On dsRED counter-screen channel, 48 h; at 19.5 µM (top of the series);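 further: 0% = median of neutral control wells and -100% = median of MG132 positive control wells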

SMILES | activity change, negative = inhibition
Cc1ccccc1N(C(=O)c1snc(C(N)=O)c1N)C(C(=O)NC1CCCCC1)c1ccc(O)cc1 (centres undefined) | inconclusive: 27.9%
c1ccc(CCNc2nc(-c3ccccn3)nc3ccccc23)cc1 | inconclusive: -31.9%
CC(=NNC(=S)Nc1ccccc1)c1ccccn1 | inactive: -98.8%
C#CCN(C[C@@H]1[C@@H](OC(=O)NCCCCCC)[C@@H](OC(=O)NCCCCCC)Cn2c(=O)ccc(=O)n21)S(=O)(=O)c1ccc(C)cc1 | inconclusive: 33.8%
CC1CCc2nc(N)c(C#N)c(-c3cccnc3)c2C1 (centres undefined) | inconclusive: -64.7%
C#Cc1cc(N2CCN(C(=O)c3ccoc3)CC2)n2nc(-c3cccc(Cl)c3)cc2n1 | inconclusive: 0.476%
CCOc1ccc(Br)cc1/C(C)=N\NC1=NCCN1 | inconclusive: 41.7%
COc1cc2oc(=O)cc(-c3ccc(-c4ccc(N(C)C)cc4)cc3)c2c(OC)c1OC | inactive: 56.6%
COc1cccc(/C=N/NC(=O)CSCC(=O)Nc2ccccc2)c1O | inconclusive: -68.4%
O=C(NNC(=S)Nc1ccc(Cl)c(Cl)c1)c1ccccn1 | inconclusive: -73.5%
Cc1nc2ncccn2c1-c1csc(Nc2ccccc2)n1 | inconclusive: 93.5%
CCCCC(=O)NC(c1ccc(Cl)cc1Cl)c1ccc2cccnc2c1O (centres undefined) | inconclusive: -75.2%
CCNc1ccc(Br)cc(C(=O)/C=C/c2c(Cl)cccc2Cl)c1=O | inconclusive: -43.1%
COc1ccc(-n2nc(C(=O)c3cccs3)cc(-c3nc4ccccc4[nH]3)c2=N)cc1 | inconclusive: 1.91%
CSc1nc(C)cc(C)c1C#N | inactive: 8.86%
O=C(CCCN1C(=O)/C(=C/c2ccccc2Cl)SC1=S)NNC(=O)c1ccccc1Cl | inactive: 7.28%
CCCC(=O)NC(c1ccc(C(C)C)cc1)c1ccc2cccnc2c1O (centres undefined) | inactive: -83.8%
CCCc1nc(SCC(=O)NCc2ccco2)c2c(=O)n(C)c(=O)n(C)c2n1 | inactive: -8.24%
Cc1ccc(S(=O)(=O)N2CCN(C(=O)COC(=O)COc3ccc(Cl)cc3)CC2)c(C)c1 | inactive: -2.22%
COC(=O)[C@@]1(Cc2ccccc2)[C@H]2C(=O)N(Cc3ccccc3)C(=O)[C@H]2[C@H]2CN=C(SCc3ccc(Cl)cc3)N21 | inactive: -98.9%
COc1cc(/C=C2/SC(=S)N(Cc3ccccc3)C2=O)ccc1OCC(=O)O | inactive: 3.87%
CC(=O)/C=C/c1ccccc1O | inconclusive: -38.7%
Oc1cccc2ccc(Nc3ccccn3)nc12 | inconclusive: -79.9%
COc1cc2c(cc1OC)-c1cc(Nc3ccc4c(c3)OCCO4)nc(=O)n1CC2 | inactive: 3.53%
Cc1cccc(Cn2cc(SCC(=O)Nc3nccs3)c3ccccc32)c1 | inactive: 20.8%

A second format for part of the listing above.
O=C(NNC(=S)Nc1ccc(Cl)c(Cl)c1)c1ccccn1
  activity change, negative = inhibition: inconclusive: -73.5%
Oc1cccc2ccc(Nc3ccccn3)nc12
  activity change, negative = inhibition: inconclusive: -79.9%

Later entries.

SMILES | activity change, negative = inhibition
S=c1[nH]nc(C2CCCCC2)n1/N=C/c1ccncc1 | inconclusive: -60.1%
Oc1ccc(C=NNc2ccccn2)c(O)c1 | inconclusive: -33.3%
NC(=O)c1sc2nc3c(c(-c4ccccc4)c2c1N)CCC3 | inconclusive: -74.9%
CCc1sc(C(=O)Nc2nc(-c3ccccn3)cs2)cc1C | inconclusive: -67%
O=C(Nc1ccc(Cl)cc1)Nc1nnc(CSCc2ccc(Cl)cc2)s1 | inactive: -9.55%
Cc1c(NC(=O)c2cccc(NC(=O)COc3ccccc3C#N)c2)c(=O)n(-c2ccccc2)n1C | inconclusive: -9.07%
Oc1ccc2ccccc2c1/C=N/Nc1nnc(-c2ncc[nH]2)c2ccccc12 | inconclusive: -44.8%
C/C(=N\NC(=O)c1cccc(Br)c1)c1ccccn1 | inconclusive: -96.9%
COc1ccc(C(=O)NC2CCCc3c2cnn3-c2cccc(C)c2C)c(OC)n1 (centres undefined) | inconclusive: -28.5%
COc1cccc(C2=CC(=O)C[C@H](c3ccc4c(c3)OCO4)C2)c1 | inactive: -1.55%
Cc1cc(C)nc(SCc2ccc(C(=O)N/N=C/c3cccc(O)c3O)cc2)n1 | inconclusive: -86.6%
O=c1c2c(nc3c(-c4ccc(Cl)cc4)c[nH]n13)CCCC2 | inconclusive: 16.5%
COc1ccc(-c2cc3c(=O)n(CC(=O)NCCCN4CCN(Cc5ccccc5)CC4)ncn3n2)cc1 | inconclusive: 13.3%
O=C(CCCOc1ccccc1)N1CCN(c2ccccc2)CC1 | inactive: 11.3%
COc1ccc(NC(=O)c2sc3ncnc(N4CCN(c5ccccn5)CC4)c3c2C)cc1Cl | inconclusive: -71.5%
CCOc1cccc(/C=N/Nc2ccc(S(=O)(=O)N(CC)CC)cn2)c1O | inconclusive: -30.3%
COc1cccc(/C=N/Nc2ncnc3c2ncn3Cc2ccccc2)c1O | inconclusive: -88.3%
COc1ccc(/C=N/Nc2cc(C)nc3ccc(OC)cc23)c(OC)c1 | inconclusive: -98.8%
CCCc1cc(=O)n2[nH]cc(-c3ccc(Cl)cc3)c2n1 | inconclusive: -46.4%
CCn1c(=O)c2c(cnn2C)c2ccccc21 | inconclusive: -57.8%
CCN1CCN(Cc2ccc(NC(=O)c3ccc(C)c(NC(=O)c4cccc5[nH]ccc45)c3)cc2C(F)(F)F)CC1 | inconclusive: -62.4%
Cc1ccc(/C=C/c2nc3ccccc3s2)s1 | inconclusive: 31.1%
O=C(O)c1ccc(C=NNC(=O)c2cccc3ccccc23)cc1 | inactive: -1.92%
Cc1cccc(S(=O)(=O)N2CCCc3ccccc32)c1 | inconclusive: 7.21%
C=CCn1c(O)c(N=NC(=S)Nc2ccccc2F)c2ccccc21 | inconclusive: 19.8%

Gathered by group: the entries above containing a furan ring, fused or not.
SMILES | activity change, negative = inhibition
C#Cc1cc(N2CCN(C(=O)c3ccoc3)CC2)n2nc(-c3cccc(Cl)c3)cc2n1 | inconclusive: 0.476%
CCCc1nc(SCC(=O)NCc2ccco2)c2c(=O)n(C)c(=O)n(C)c2n1 | inactive: -8.24%

Next part.

SMILES | activity change, negative = inhibition
CC(=O)Nc1cccc(-c2cnc(N)c(C(=O)c3cccnc3)n2)c1 | inconclusive: -32.4%
Cc1c(C(=O)Nc2nc(-c3ccccn3)cs2)oc2ccccc12 | inconclusive: 38%
Cc1ccnc(NC(=O)c2ccc(C(=O)c3ccccc3)cc2)c1 | inconclusive: 33%
CC(=O)c1ccc(NC(=O)c2noc3c2CCC3)cc1 | inconclusive: -12.5%
CN(C)/C=C/C(=O)c1ccc2noc(-c3ccccc3)c2c1 | inactive: -15.5%
Oc1ccccc1/C=N/Nc1nccnc1Cl | inconclusive: -92.9%
Cc1[nH]n(-c2ccccc2)c(=O)c1/C=N/Nc1nncc(-c2ccccc2)n1 | inconclusive: -80.8%
Oc1c(N=NC(=S)Nc2ccccc2F)c2ccccc2n1Cc1ccccc1Cl | inactive: 13.7%
c1ccc(-n2nnc3c(N4CCOCC4)ncnc32)cc1 | inactive: -0.029%
COc1cccc(C2Nc3ccc4ccccc4c3C3=C2C(=O)CC(C)(C)C3)c1OCC(=O)O (centres undefined) | inactive: -6.54%
C#CCn1c(S(=O)(=O)Cc2ccc(F)cc2)nc(-c2ccccc2)c1-c1ccccc1 | inconclusive: -61%
Cn1c(/C=C/c2ccccc2)nc2ccccc21 | inactive: 1.47%
Cc1cc(S(=O)(=O)c2ccc(Cl)cc2)nc(S(=O)(=O)c2ccc(Cl)cc2)c1C#N | inconclusive: -0.169%
Cc1ccc(CN2C(=O)CCC2C(=O)NCCCN2CCC(C)CC2)cc1 (centres undefined) | inactive: 8.48%
Nc1ncnc(N2CCc3ccccc32)c1[N+](=O)[O-] | inconclusive: -22.3%
CCOc1ccccc1/C=C/c1onc(C)c1S(=O)(=O)N1CCC(C(=O)N(CC)CC)CC1 | inactive: -12.9%
Cc1ccc(/C=C/C(=O)C2C(=O)c3ccccc3C2=O)cc1 | inconclusive: 13.3%
CC1CCC(NC(=O)CC2Oc3ccccc3NC2=O)CC1 (centres undefined) | inconclusive: 23.1%
COc1ccc(S(=O)(=O)N2CCN(CC(=O)Nc3ccc(C)c(F)c3)CC2)cc1 | inactive: -19.7%
Cc1ccccc1C(=O)N1CCN(c2ccc(NC(=O)c3ccco3)cc2Cl)CC1 | inactive: -42.5%
O=C(COC(=O)c1ccc(S(=O)(=O)NCc2ccco2)cc1)Nc1ccc(Cl)cn1 | inactive: 12.5%
CC1CC(C)CN(S(=O)(=O)c2ccc(NC(=O)CCN3C(=O)C4CC=CCC4C3=O)cc2)C1 (centres undefined) | inactive: -14%
COc1ccc(O)c(/C=N/Nc2nc(Nc3ccccc3)nc(-n3nc(C)cc3C)n2)c1 | inconclusive: -77.7%
Cc1csc(N=Nc2ccc(N(C)C)cc2)[n+]1[O-] | inactive: -34.3%
